Assay [1] deals with Myc-tagged ZNRF3 full-length (FL), expressed in 293T cells (UniProt Q9ULT6). In words: co-IP; 293T cells co-transfected with EGFR and Myc-tagged ZNRF3 constructs; lysate amounts adjusted to comparable EGFR; Myc-tag IP followed by EGFR immunoblotting.
Assay [2] addresses EGFR, transfected in 293T cells (UniProt P00533). As to the kind of experiment: co-IP; 293T cells co-transfected with EGFR and Myc-tagged ZNRF3 constructs; lysate amounts adjusted to comparable EGFR; EGFR IP followed by Myc-tag immunoblotting.
The target of assay [3] is EGFR, ectopically expressed in MDA-MB-231 cells (UniProt P00533). In words: co-IP; lysates of MDA-MB-231 cells co-infected with lentivirus carrying EGFR and Myc-tagged ZNRF3 or RNF43; anti-EGFR IP, Protein G Sepharose, overnight at 4°C; NP-40 or RIPA lysis buffer.

Sequences of proteins named here, by UniProt entry; tags and fusion partners are left off. Residues count along the entry.
UniProt Q9ULT6, residues 56-936: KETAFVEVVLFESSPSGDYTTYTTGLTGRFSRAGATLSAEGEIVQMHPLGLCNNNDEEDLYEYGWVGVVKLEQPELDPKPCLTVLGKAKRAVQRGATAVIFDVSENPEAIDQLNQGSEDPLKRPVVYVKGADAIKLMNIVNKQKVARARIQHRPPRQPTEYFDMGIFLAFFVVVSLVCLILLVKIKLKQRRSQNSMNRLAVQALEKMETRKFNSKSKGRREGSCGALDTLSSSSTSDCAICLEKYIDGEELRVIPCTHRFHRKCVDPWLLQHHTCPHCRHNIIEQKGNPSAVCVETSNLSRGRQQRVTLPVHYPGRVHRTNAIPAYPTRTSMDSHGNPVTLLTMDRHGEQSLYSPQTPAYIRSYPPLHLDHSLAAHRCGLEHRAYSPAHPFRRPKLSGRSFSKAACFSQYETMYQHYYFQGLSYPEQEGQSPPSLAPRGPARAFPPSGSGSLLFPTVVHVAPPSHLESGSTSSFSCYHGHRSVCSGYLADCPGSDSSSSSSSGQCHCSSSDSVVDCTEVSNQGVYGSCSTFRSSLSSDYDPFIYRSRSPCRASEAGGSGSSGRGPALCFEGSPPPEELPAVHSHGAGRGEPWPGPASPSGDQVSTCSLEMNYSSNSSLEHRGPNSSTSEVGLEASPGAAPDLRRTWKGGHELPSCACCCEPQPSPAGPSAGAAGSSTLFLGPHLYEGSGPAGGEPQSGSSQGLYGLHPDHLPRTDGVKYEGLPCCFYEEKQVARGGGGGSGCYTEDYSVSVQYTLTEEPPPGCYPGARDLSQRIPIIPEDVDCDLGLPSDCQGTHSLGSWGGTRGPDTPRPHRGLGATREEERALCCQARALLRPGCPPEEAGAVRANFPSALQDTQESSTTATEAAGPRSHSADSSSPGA

No constants are given. Whether binding was seen depends on the method and setting. In cells and extracts the contact can be indirect. Some entries that bind do so weakly or less than the wild type.

Take “EGFR, transfected in 293T cells (from UniProt P00533 25-1210) (receptor)”: the binding entry in assay [1] is recorded as “binds”.
With “Myc-tagged ZNRF3 full-length (FL), expressed in 293T cells (from UniProt Q9ULT6 56-936) (enzyme)”, in assay [2], the binding result is “binds”.
As to “Myc-tagged ZNRF3, expressed in MDA-MB-231 cells (from UniProt Q9ULT6 56-936) (enzyme)”, the binding entry in assay [3] is recorded as “binds”.

These data come from paper PMC13068435.
